Data as given in the supplement of paper PMC8728848.
The other results are listed elsewhere or left out.

Columns and labels:
Assay in all cases: glycan array binding signal (z-score within array); higher = stronger binding
Details in all cases: glycan notation: IUPAC condensed, linker removed
[1] = molecular target: GlcNAc(b1-2)Man(a1-3)[GlcNAc(b1-2)Man(a1-6)]Man(b1-4)GlcNAc(b1-4)GlcNAc
Procedure, shortened: (§1)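 The binding signal is a Z-score computed within each array and averaged over linkers. Arrays of the same protein sequence at different concentrations or buffers were also averaged together. Data originate from 3228 arrays in the Consortium for Functional Glycomics database, kept only where the protein sequence was available.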

[2] = molecular target: GlcNAc(b1-2)Man(a1-3)[GlcNAc(b1-2)Man(a1-6)]Man(b1-4)GlcNAc(b1-4)[Fuc(a1-6)]GlcNAc
Procedure, shortened: as §1

[3] = molecular target: GlcNAc(b1-2)Man(a1-3)[GlcNAc(b1-4)][GlcNAc(b1-2)Man(a1-6)]Man(b1-4)GlcNAc(b1-4)GlcNAc
Procedure, shortened: as §1

[4] = molecular target: GlcNAc(b1-2)Man(a1-3)[GlcNAc(b1-4)][GlcNAc(b1-2)Man(a1-6)]Man(b1-4)GlcNAc(b1-4)[Fuc(a1-6)]GlcNAc
Procedure, shortened: as §1

[5] = molecular target: GlcNAc(b1-2)[GlcNAc(b1-4)]Man(a1-3)[GlcNAc(b1-2)Man(a1-6)]Man(b1-4)GlcNAc(b1-4)GlcNAc
Procedure, shortened: as §1

[6] = molecular target: GlcNAc(b1-2)[GlcNAc(b1-4)]Man(a1-3)[GlcNAc(b1-4)][GlcNAc(b1-2)Man(a1-6)]Man(b1-4)GlcNAc(b1-4)GlcNAc
Procedure, shortened: as §1

[7] = molecular target: GlcNAc(b1-2)[GlcNAc(b1-4)]Man(a1-3)[GlcNAc(b1-4)][GlcNAc(b1-2)[GlcNAc(b1-6)]Man(a1-6)]Man(b1-4)GlcNAc(b1-4)GlcNAc
Procedure, shortened: as §1

[8] = molecular target: GlcNAc(b1-2)[GlcNAc(b1-4)]Man(a1-3)[GlcNAc(b1-4)][GlcNAc(b1-2)[GlcNAc(b1-6)]Man(a1-6)]Man(b1-4)GlcNAc(b1-4)[Fuc(a1-6)]GlcNAc
Procedure, shortened: as §1

[9] = molecular target: GlcNAc(b1-2)[GlcNAc(b1-6)]Man(a1-6)[GlcNAc(b1-2)Man(a1-3)]Man(b1-4)GlcNAc(b1-4)GlcNAc
Procedure, shortened: as §1

[10] = molecular target: GlcNAc(b1-2)[GlcNAc(b1-6)]Man(a1-6)[GlcNAc(b1-2)Man(a1-3)]Man(b1-4)GlcNAc(b1-4)[Fuc(a1-6)]GlcNAc
Procedure, shortened: as §1

[11] = molecular target: GlcNAc(b1-2)[GlcNAc(b1-6)]Man(a1-6)[GlcNAc(b1-4)][GlcNAc(b1-2)Man(a1-3)]Man(b1-4)GlcNAc(b1-4)GlcNAc
Procedure, shortened: as §1

[12] = molecular target: GlcNAc(b1-3)Fuc
Procedure, shortened: as §1

[13] = molecular target: GlcNAc(b1-3)Gal
Procedure, shortened: as §1

[14] = molecular target: GlcNAc(b1-3)Gal(b1-3)GalNAc
Procedure, shortened: as §1

[15] = molecular target: GlcNAc(b1-3)Gal(b1-4)Glc
Procedure, shortened: as §1

[16] = molecular target: GlcNAc(b1-3)Gal(b1-4)GlcNAc
Procedure, shortened: as §1

[17] = molecular target: GlcNAc(b1-3)Gal(b1-4)GlcNAc(b1-2)Man(a1-3)[GlcNAc(b1-3)Gal(b1-4)GlcNAc(b1-2)Man(a1-6)]Man(b1-4)GlcNAc(b1-4)GlcNAc
Procedure, shortened: as §1

[18] = molecular target: GlcNAc(b1-3)Gal(b1-4)GlcNAc(b1-2)Man(a1-3)[GlcNAc(b1-3)Gal(b1-4)GlcNAc(b1-2)Man(a1-6)]Man(b1-4)GlcNAc(b1-4)[Fuc(a1-6)]GlcNAc
Procedure, shortened: as §1

[19] = molecular target: GlcNAc(b1-3)Gal(b1-4)GlcNAc(b1-2)[GlcNAc(b1-3)Gal(b1-4)GlcNAc(b1-6)]Man(a1-6)[GlcNAc(b1-3)Gal(b1-4)GlcNAc(b1-2)Man(a1-3)]Man(b1-4)GlcNAc(b1-4)GlcNAc
Procedure, shortened: as §1

[20] = molecular target: GlcNAc(b1-3)Gal(b1-4)GlcNAc(b1-3)Gal(b1-4)GlcNAc
Procedure, shortened: as §1

[21] = molecular target: GlcNAc(b1-3)Gal(b1-4)GlcNAc(b1-3)Gal(b1-4)GlcNAc(b1-2)Man(a1-3)[GlcNAc(b1-3)Gal(b1-4)GlcNAc(b1-3)Gal(b1-4)GlcNAc(b1-2)Man(a1-6)]Man(b1-4)GlcNAc(b1-4)GlcNAc
Procedure, shortened: as §1

[22] = molecular target: GlcNAc(b1-3)Gal(b1-4)GlcNAc(b1-3)Gal(b1-4)GlcNAc(b1-2)Man(a1-3)[GlcNAc(b1-3)Gal(b1-4)GlcNAc(b1-3)Gal(b1-4)GlcNAc(b1-2)Man(a1-6)]Man(b1-4)GlcNAc(b1-4)[Fuc(a1-6)]GlcNAc
Procedure, shortened: as §1

[23] = molecular target: GlcNAc(b1-3)Gal(b1-4)GlcNAc(b1-3)Gal(b1-4)GlcNAc(b1-2)[GlcNAc(b1-3)Gal(b1-4)GlcNAc(b1-3)Gal(b1-4)GlcNAc(b1-6)]Man(a1-6)[GlcNAc(b1-3)Gal(b1-4)GlcNAc(b1-3)Gal(b1-4)GlcNAc(b1-2)Man(a1-3)]Man(b1-4)GlcNAc(b1-4)[Fuc(a1-6)]GlcNAc
Procedure, shortened: as §1

[24] = molecular target: GlcNAc(b1-3)Gal(b1-4)GlcNAc(b1-3)Gal(b1-4)GlcNAc(b1-3)Gal(b1-4)GlcNAc(b1-2)Man(a1-3)[GlcNAc(b1-3)Gal(b1-4)GlcNAc(b1-3)Gal(b1-4)GlcNAc(b1-3)Gal(b1-4)GlcNAc(b1-2)Man(a1-6)]Man(b1-4)GlcNAc(b1-4)GlcNAc
Procedure, shortened: as §1

[25] = molecular target: GlcNAc(b1-3)Gal(b1-4)GlcNAc(b1-3)Gal(b1-4)GlcNAc(b1-3)Gal(b1-4)GlcNAc(b1-2)Man(a1-3)[GlcNAc(b1-3)Gal(b1-4)GlcNAc(b1-3)Gal(b1-4)GlcNAc(b1-3)Gal(b1-4)GlcNAc(b1-2)Man(a1-6)]Man(b1-4)GlcNAc(b1-4)[Fuc(a1-6)]GlcNAc
Procedure, shortened: as §1

[26] = molecular target: GlcNAc(b1-3)Gal(b1-4)GlcNAc(b1-3)Gal(b1-4)GlcNAc(b1-3)Gal(b1-4)GlcNAc(b1-2)[GlcNAc(b1-3)Gal(b1-4)GlcNAc(b1-3)Gal(b1-4)GlcNAc(b1-3)Gal(b1-4)GlcNAc(b1-6)]Man(a1-6)[GlcNAc(b1-3)Gal(b1-4)GlcNAc(b1-3)Gal(b1-4)GlcNAc(b1-3)Gal(b1-4)GlcNAc(b1-2)Man(a1-3)]Man(b1-4)GlcNAc(b1-4)[Fuc(a1-6)]GlcNAc
Procedure, shortened: as §1

[27] = molecular target: GlcNAc(b1-3)Gal(b1-4)GlcNAc(b1-3)Gal(b1-4)GlcNAc(b1-3)Gal(b1-4)GlcNAc(b1-3)Gal(b1-4)GlcNAc(b1-2)Man(a1-3)[GlcNAc(b1-3)Gal(b1-4)GlcNAc(b1-3)Gal(b1-4)GlcNAc(b1-3)Gal(b1-4)GlcNAc(b1-3)Gal(b1-4)GlcNAc(b1-2)Man(a1-6)]Man(b1-4)GlcNAc(b1-4)GlcNAc
Procedure, shortened: as §1

[28] = molecular target: GlcNAc(b1-3)Gal(b1-4)GlcNAc(b1-3)Gal(b1-4)GlcNAc(b1-3)Gal(b1-4)GlcNAc(b1-3)Gal(b1-4)GlcNAc(b1-2)Man(a1-3)[GlcNAc(b1-3)Gal(b1-4)GlcNAc(b1-3)Gal(b1-4)GlcNAc(b1-3)Gal(b1-4)GlcNAc(b1-3)Gal(b1-4)GlcNAc(b1-2)Man(a1-6)]Man(b1-4)GlcNAc(b1-4)[Fuc(a1-6)]GlcNAc
Procedure, shortened: as §1

[29] = molecular target: GlcNAc(b1-3)Gal(b1-4)GlcNAc(b1-3)Gal(b1-4)GlcNAc(b1-3)Gal(b1-4)GlcNAc(b1-3)Gal(b1-4)GlcNAc(b1-2)[GlcNAc(b1-3)Gal(b1-4)GlcNAc(b1-3)Gal(b1-4)GlcNAc(b1-3)Gal(b1-4)GlcNAc(b1-3)Gal(b1-4)GlcNAc(b1-6)]Man(a1-6)[GlcNAc(b1-3)Gal(b1-4)GlcNAc(b1-3)Gal(b1-4)GlcNAc(b1-3)Gal(b1-4)GlcNAc(b1-3)Gal(b1-4)GlcNAc(b1-2)Man(a1-3)]Man(b1-4)GlcNAc(b1-4)[Fuc(a1-6)]GlcNAc
Procedure, shortened: as §1

[30] = molecular target: GlcNAc(b1-3)Gal(b1-4)GlcNAc(b1-3)Gal(b1-4)GlcNAc(b1-3)GalNAc
Procedure, shortened: as §1

B1: Blon0732mut (Bifidobacterium longum) (protein)
chain: MPTSEHKADDATRHLTLIPAPVTLEYTHGTALIGPLVTIEDADQSWETLPIEQLSDELRHRYGVTVLRRRTHGTVISLGLDSRLAHDEYTLDVSESEGIRVRGGGESGLRYGLQTLRQIIGQTSRAIPCLHIQDKPAFAVRAYSLDVTRGRVPTMEFLTWFVDQLALYKYNQFQLYVEHAFAFVELSEAWRGTDPLTAADITYLDEYCARRGIELVPSLATFGHMYMNLRTREHRGLGEFPEDADRPFSFIERMEHHTLNAADPKAHDFASRLIEEYAPLFRSKSFNIGGNETFDLGRGRSAQDAPEAGRDELYAGFVRDLCETLARHGRQPMLWADIALESPRTMDLLPGDITMLNWMYEPQIDESKIQTIATQGRRQFVCPAVRAWSRFFPDYAGAWLNTYHMALAGTKYDAEGMVVTDWGDYGHVNDPRLSVPGLCYGAQNAWNPIEIDAHEMNRRISALVYGDESGRIMDCLARIDSDGVSFPWDLAVQVLELEYGSGTGALNMDVAACMERSSGGKLTLDRTLGCDDARRRMLQWNRERIERRRDCDQVLRDCGDAFAGLDKGGLTAEFLSVMLDGQRLFNELGEELLALADGKDVGSGANRLAADLELWFERYRAQWLSVGRHAELARIAHVVWSLADILRRGAL
- glycan array binding signal (z-score) [1]: 0.292
- glycan array binding signal (z-score) [2]: 0.425
- glycan array binding signal (z-score) [3]: -0.795
- glycan array binding signal (z-score) [4]: -0.15
- glycan array binding signal (z-score) [5]: -0.518
- glycan array binding signal (z-score) [6]: 1.28
- glycan array binding signal (z-score) [7]: -0.463
- glycan array binding signal (z-score) [8]: 0.4
- glycan array binding signal (z-score) [9]: 0.341
- glycan array binding signal (z-score) [10]: 0.453
- glycan array binding signal (z-score) [11]: -0.576
- glycan array binding signal (z-score) [12]: -1.38
- glycan array binding signal (z-score) [13]: -0.251
- glycan array binding signal (z-score) [14]: -0.685
- glycan array binding signal (z-score) [15]: -0.575
- glycan array binding signal (z-score) [16]: -0.152
- glycan array binding signal (z-score) [17]: -0.851
- glycan array binding signal (z-score) [18]: -0.567
- glycan array binding signal (z-score) [19]: 3.03
- glycan array binding signal (z-score) [20]: -0.588
- glycan array binding signal (z-score) [21]: -0.416
- glycan array binding signal (z-score) [22]: 0.158
- glycan array binding signal (z-score) [23]: -0.459
- glycan array binding signal (z-score) [24]: -0.058
- glycan array binding signal (z-score) [25]: 0.457
- glycan array binding signal (z-score) [26]: -0.35
- glycan array binding signal (z-score) [27]: 0.694
- glycan array binding signal (z-score) [28]: -0.189
- glycan array binding signal (z-score) [29]: -1.01
- glycan array binding signal (z-score) [30]: -0.346
